Test: Passive Permeability of the compound across artificial membrane assessed as fraction absorbed by PAMPA assay

In the case of Cc1nnn(Cc2cc(C(F)(F)F)ccc2/C=C/C(=O)N2CCC(C(F)(F)F)CC2)n1, the Fa is reported as 89%.

— ChEMBL document CHEMBL4673273, “Development of autotaxin inhibitors: A series of tetrazole cinnamides” (Bioorg Med Chem Lett, 2021)
